This is an account of results in PMC11467372.

Chains of the proteins cited; added tags and fusions are not shown. Residues count along the entry.
UniProt Q15116, residues 25-288: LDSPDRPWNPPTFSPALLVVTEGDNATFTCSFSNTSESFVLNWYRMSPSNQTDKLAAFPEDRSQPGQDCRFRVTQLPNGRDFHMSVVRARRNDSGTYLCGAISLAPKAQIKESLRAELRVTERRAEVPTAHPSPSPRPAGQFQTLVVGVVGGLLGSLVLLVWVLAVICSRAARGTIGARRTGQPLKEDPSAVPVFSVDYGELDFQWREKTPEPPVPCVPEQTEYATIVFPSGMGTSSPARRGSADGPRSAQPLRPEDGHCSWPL

For this experiment, the target named is PD-1 (endogenous, in Jurkat cells) (human (endogenous in Jurkat)) (UniProt Q15116). The experiment is described as follows: proximity ligation; endogenous FBXO38-HA and endogenous PD-1 in FBXO38-HA knockin Jurkat cells; signal seen in the cytoplasm; representative image and PLA signal quantification.

These are yes or no findings as the source states them, for the method shown. In cells and extracts the contact can be indirect. Some results given as binding are weak or reduced against the parent protein; the word gives no strength. Sequences can lack the tags named with a protein.

B1: FBXO38-HA (endogenous FBXO38 in FBXO38-HA knockin Jurkat cells) (protein, UniProt Q6PIJ6 1-1188)
chain: MGPRKKSVKTCIMNNEIPEEMTADETKDYMNQLSHEVLCHIFRYLPLQDIMCMECLSRKLKEAVTLYLRVVRVVDLCAGRWWEYMPSGFTDASFLTLLKKMPDVEQLYGLHPRYLERRRVRGHEAFSIPGVLEALQACPNLVGVETSHLELVESIWTYMPHVHILGKFRNRNGAFPIPPENKLKIPIGAKIQTLHLVGVNVPEIPCIPMLRHLYMKWVRLTKPQPFKDFLCISLRTFVMRNCAGPTNSLKYVPLVTGLASARNLEHLEMVRVPFLGGLIQHVVEDSWRSGGFRNLHTIVLGACKNALEVDLGYLIITAARRLHEVRIQPSLTKDGVFSALKMAELEFPQFETLHLGYVDEFLLQSRMANADLVKYGLADVVENPGIITDIGMKAVNEVFSCIKYLAIYNCPHLHNPYNWISDHSRWTRLVDINLVRCHALKLDSFGQFIELLPSLEFISLDQMFREPPKGCARVGLSAGTGIGVSSALVSNQNSNNDDNNAQNNNANIHDNNHHHPDDSDEENDFRQDLQPGEQQFAADALNEMEDIVQEDGEVVAESGNNTPAHSQAIIPVDVDEEQAGPSGLQRVVKPTSITVHDSESDDEEDSLELQEVWIPKNGTRRYSEREEKTGESVQSRELSVSGKGKTPLRKRYNSHQMGQSKQFPLEESSCEKGCQVTSEQIKADMKAARDIPEKKKNKDVYPSCSSTTASTVGNSSSHNTASQSPDFVRTVNSGGSSEPSPTEVDVSRQCACSPGGSEDSEAMEEGDAESSVCPRCCCHRPQESQRRTSRCSDEERPSTSRACVVNGPDGTRSAFSFRTLPQGGSSGPAHDERTNGSGSGATGEDRRGSSQPESCDVQSNEDYPRRPLTRARSRLSHVLLVSESEVAKTKPRHAMKRKRTADKSTSTSDPVIEDDHVQVLVLKSKNLVGVTMTNCGITDLVLKDCPKMMFIHATRCRVLKHLKVENAPIVNRFDYAQCKKLNMDQVLDQILRMPPERNRIIYLRPMQQVDTLTLEQKLFSGPYPYHICIIHEFSNPPNVRNKVRIRSWMDTIANINQELIKYEFFPEATRSEEDLKKYPKYPWGREIYTLEGVVDGAPYSMISDFPWLRSLRAAEPNSFARYDFEDDEESTIYAPRRKGQLSADICMETIGEEISEMRQMKKGVFQRVVAIFIHYCDVNGEPVEDDYI
Regarding B1, the binding entry is “binds”.
